Results are given in words; binding and its absence hold for the method and conditions named. For some assays here: Binding calls can cover weak binding; strength is not graded here. For some assays here: Where a sequence is shown, tags or fusion partners need not be part of it. For some assays here: In cells and extracts the contact can be indirect. Values belong to the molecule of their own block, whether it stands above or below them.
Columns and labels:
[1] = biological target: T1, endogenous mouse Sfr1 (mouse (endogenous in ES cells)) (UniProt Q8BP27); assay: co-IP; endogenous proteins, untreated mouse ES cell extract (200 µg), anti-Swi5 or anti-Sfr1 antibodies, Protein G Dynabeads, 4°C, washes with 200 mM NaCl/1% NP-40; Western blotting
T1 sequence: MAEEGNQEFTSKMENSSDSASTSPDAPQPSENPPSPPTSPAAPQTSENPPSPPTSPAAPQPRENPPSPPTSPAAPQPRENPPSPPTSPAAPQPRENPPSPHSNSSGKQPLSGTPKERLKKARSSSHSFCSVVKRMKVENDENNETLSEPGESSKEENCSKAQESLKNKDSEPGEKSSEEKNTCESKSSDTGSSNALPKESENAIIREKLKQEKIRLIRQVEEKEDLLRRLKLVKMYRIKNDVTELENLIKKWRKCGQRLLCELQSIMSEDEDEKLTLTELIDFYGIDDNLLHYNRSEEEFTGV

[2] = biological target: T2, mouse Sfr1 (303 amino acids), Gal4 fusion for yeast two-hybrid (mouse) (UniProt Q8BP27); assay: two-hybrid; Matchmaker Two-Hybrid system 3 (Clontech), Gal4AD (pGADT7) and Gal4DBD (pGBKT7) fusions; growth on SD media without leucine, tryptophan, histidine and adenine
T2 sequence: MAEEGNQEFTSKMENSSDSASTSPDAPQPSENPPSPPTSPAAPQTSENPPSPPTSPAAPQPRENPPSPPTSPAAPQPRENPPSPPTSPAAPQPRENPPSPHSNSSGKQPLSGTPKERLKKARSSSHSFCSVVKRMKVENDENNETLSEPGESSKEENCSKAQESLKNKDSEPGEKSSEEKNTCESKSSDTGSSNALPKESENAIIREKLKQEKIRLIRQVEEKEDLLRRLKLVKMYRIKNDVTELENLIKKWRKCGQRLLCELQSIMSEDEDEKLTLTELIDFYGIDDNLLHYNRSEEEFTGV

[3] = biological target: GST fusion of the mouse Swi5 C-terminal half (mouse); assay: pull-down; GST or GST fusion from E. coli lysate immobilized to MagneGST; mixed with E. coli lysate (40 µg of proteins) holding His6-Sfr1 or Rad51; R-buffer (20 mM Tris-HCl pH 7.6, 1 mM EDTA, 100 mM NaCl, 0.1% Triton X-100, 1 mM DTT, 10% glycerol), three hours at 4°C; CBB staining and Western blotting; for Rad51 also with ethidium bromide or DNase I; only the target purified
[4] = biological target: GST-Swi5N (mouse Swi5 N-terminal half) (mouse); assay: as above
[5] = biological target: GST-Swi5 (mouse, 89 amino acid form) (mouse); assay: as above
[6] = biological target: endogenous mouse Swi5 (mouse (endogenous in ES cells)); assay: co-IP; endogenous proteins, untreated mouse ES cell extract (200 µg), anti-Swi5 or anti-Sfr1 antibodies, Protein G Dynabeads, 4°C, washes with 200 mM NaCl/1% NP-40; Western blotting

Molecule: mouse Swi5 (89 amino acid form), Gal4 fusion for yeast two-hybrid
binding [2]: binds

Molecule: mouse Swi5 C-terminal half, Gal4 fusion for yeast two-hybrid (domain or fragment)
binding [2]: no binding

B1: His6-Sfr1 (mouse, 303 amino acids) (protein, UniProt Q8BP27-2 1-303)
chain: MAEEGNQEFTSKMENSSDSASTSPDAPQPSENPPSPPTSPAAPQTSENPPSPPTSPAAPQPRENPPSPPTSPAAPQPRENPPSPPTSPAAPQPRENPPSPHSNSSGKQPLSGTPKERLKKARSSSHSFCSVVKRMKVENDENNETLSEPGESSKEENCSKAQESLKNKDSEPGEKSSEEKNTCESKSSDTGSSNALPKESENAIIREKLKQEKIRLIRQVEEKEDLLRRLKLVKMYRIKNDVTELENLIKKWRKCGQRLLCELQSIMSEDEDEKLTLTELIDFYGIDDNLLHYNRSEEEFTGV
binding [3]: no binding
binding [4]: binds
binding [5]: binds

Continued, values first:

binding [1]: binds
Molecule: endogenous mouse Swi5

binding [2]: binds
Molecule: mouse Swi5 N-terminal half, Gal4 activation domain fusion (domain or fragment)

binding [6]: binds
B2: endogenous mouse Sfr1 (protein, UniProt Q8BP27-2 1-303)
chain: MAEEGNQEFTSKMENSSDSASTSPDAPQPSENPPSPPTSPAAPQTSENPPSPPTSPAAPQPRENPPSPPTSPAAPQPRENPPSPPTSPAAPQPRENPPSPHSNSSGKQPLSGTPKERLKKARSSSHSFCSVVKRMKVENDENNETLSEPGESSKEENCSKAQESLKNKDSEPGEKSSEEKNTCESKSSDTGSSNALPKESENAIIREKLKQEKIRLIRQVEEKEDLLRRLKLVKMYRIKNDVTELENLIKKWRKCGQRLLCELQSIMSEDEDEKLTLTELIDFYGIDDNLLHYNRSEEEFTGV
